Assay results from paper PMC6739357.
These are yes or no findings as the source states them, for the method shown. Binding seen in cells or lysates may run through a third protein. Some binding calls cover weakened binding; strength is not graded here.

The chains behind the UniProt entries cited, without tags or fusion partners. Residues count along the entry.
UniProt Q704E8, residues 23-752: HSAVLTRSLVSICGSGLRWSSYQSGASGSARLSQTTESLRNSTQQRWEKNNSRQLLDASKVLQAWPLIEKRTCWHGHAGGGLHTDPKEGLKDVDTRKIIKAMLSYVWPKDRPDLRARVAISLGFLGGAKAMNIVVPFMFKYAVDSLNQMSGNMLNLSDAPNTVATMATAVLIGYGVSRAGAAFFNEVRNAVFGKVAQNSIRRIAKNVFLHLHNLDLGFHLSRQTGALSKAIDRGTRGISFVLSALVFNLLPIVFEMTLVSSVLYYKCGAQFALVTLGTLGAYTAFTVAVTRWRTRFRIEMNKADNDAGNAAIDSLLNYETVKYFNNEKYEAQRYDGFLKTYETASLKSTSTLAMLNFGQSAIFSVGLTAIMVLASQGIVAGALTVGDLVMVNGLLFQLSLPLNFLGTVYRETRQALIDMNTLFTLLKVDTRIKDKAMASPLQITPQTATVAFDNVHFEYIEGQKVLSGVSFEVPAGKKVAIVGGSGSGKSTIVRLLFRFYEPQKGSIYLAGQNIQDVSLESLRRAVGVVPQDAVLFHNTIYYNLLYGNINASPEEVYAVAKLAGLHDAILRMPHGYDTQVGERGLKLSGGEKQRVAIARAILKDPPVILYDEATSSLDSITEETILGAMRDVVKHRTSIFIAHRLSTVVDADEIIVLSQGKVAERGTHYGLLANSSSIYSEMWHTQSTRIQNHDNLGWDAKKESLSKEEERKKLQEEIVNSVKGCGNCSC
UniProt P15999, residues 44-553: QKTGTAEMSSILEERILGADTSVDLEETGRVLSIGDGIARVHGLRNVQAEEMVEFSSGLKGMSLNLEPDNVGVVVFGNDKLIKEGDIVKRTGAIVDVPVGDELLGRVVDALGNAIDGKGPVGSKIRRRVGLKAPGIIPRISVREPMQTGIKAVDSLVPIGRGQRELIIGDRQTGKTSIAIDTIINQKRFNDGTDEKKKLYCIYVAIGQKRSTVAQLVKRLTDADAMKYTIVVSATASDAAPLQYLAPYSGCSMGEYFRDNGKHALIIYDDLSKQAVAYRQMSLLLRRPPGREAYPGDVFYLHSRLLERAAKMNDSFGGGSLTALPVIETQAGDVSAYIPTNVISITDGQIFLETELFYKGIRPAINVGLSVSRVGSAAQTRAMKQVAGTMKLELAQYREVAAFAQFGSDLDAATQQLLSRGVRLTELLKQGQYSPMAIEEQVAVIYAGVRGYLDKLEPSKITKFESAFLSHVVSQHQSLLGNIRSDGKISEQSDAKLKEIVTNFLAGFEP

Target: ABCB7 (mitochondrial ATP-binding cassette transporter ABCB7) (rat (endogenous in H9C2)) (UniProt Q704E8)
Experiment: co-IP; endogenous proteins; H9C2 cell lysate (~1 mg protein) in IP buffer (20 mM Tris-HCl, 1 mM EDTA, 150 mM NaCl, 0.5% NP-40); immunoprecipitated with ABCB7 or COXIV antibody (2-3 ug) and protein A/G agarose beads at 4 °C overnight; Western blot

binding: binds
Substance: ATP5a (mitochondrial complex V) (from UniProt P15999 44-553)
